Measured values from patent US9605384B2, “Hydrophobic paper, cardboard, and packaging” (STL SUSTAINABLE TECHNOLOGIES, LLC, priority 2010, dated 2017).

Assay: Tensile strength of paper
Conditions: pulp in aqueous medium with 2 wt. % total alkoxysilane, versus paper free of alkoxysilane

## CO[Si](C)(OC)OC [methyltrimethoxysilane]
  improvement in tensile strength: 16%

## CCCCCCCC[Si](OCC)(OCC)OCC [n-octyltriethoxysilane]
  improvement in tensile strength: 28%
